According to publication doi:10.1101/491274:
No constants are given. Whether binding was seen depends on the method and setting. Binding seen in cells or lysates may run through a third protein. For part of these data: Sequences can lack the tags named with a protein.

By UniProt entry, the sequences of proteins in these tests, tags left out. Where a name states a change or a piece, a line headed by the entry shows the natural chain unless it says otherwise.
UniProt Q92615: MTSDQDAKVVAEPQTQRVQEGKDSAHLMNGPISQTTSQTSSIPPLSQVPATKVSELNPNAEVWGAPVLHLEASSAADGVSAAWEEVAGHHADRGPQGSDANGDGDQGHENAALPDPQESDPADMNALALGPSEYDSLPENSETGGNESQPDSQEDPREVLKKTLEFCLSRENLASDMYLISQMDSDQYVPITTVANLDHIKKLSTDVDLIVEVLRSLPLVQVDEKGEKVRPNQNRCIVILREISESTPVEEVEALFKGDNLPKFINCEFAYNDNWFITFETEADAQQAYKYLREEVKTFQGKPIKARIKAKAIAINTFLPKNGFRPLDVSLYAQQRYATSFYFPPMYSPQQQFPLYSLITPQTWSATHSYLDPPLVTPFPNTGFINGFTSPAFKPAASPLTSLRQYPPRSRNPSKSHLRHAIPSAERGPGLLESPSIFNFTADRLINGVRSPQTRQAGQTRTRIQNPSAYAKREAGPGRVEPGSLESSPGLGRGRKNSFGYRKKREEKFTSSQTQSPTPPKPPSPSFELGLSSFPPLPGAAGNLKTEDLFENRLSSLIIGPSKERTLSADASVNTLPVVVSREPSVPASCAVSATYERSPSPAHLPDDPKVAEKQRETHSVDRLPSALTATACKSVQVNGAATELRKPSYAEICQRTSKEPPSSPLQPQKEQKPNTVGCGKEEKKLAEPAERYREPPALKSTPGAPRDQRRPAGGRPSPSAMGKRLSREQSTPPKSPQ
UniProt Q71RC2: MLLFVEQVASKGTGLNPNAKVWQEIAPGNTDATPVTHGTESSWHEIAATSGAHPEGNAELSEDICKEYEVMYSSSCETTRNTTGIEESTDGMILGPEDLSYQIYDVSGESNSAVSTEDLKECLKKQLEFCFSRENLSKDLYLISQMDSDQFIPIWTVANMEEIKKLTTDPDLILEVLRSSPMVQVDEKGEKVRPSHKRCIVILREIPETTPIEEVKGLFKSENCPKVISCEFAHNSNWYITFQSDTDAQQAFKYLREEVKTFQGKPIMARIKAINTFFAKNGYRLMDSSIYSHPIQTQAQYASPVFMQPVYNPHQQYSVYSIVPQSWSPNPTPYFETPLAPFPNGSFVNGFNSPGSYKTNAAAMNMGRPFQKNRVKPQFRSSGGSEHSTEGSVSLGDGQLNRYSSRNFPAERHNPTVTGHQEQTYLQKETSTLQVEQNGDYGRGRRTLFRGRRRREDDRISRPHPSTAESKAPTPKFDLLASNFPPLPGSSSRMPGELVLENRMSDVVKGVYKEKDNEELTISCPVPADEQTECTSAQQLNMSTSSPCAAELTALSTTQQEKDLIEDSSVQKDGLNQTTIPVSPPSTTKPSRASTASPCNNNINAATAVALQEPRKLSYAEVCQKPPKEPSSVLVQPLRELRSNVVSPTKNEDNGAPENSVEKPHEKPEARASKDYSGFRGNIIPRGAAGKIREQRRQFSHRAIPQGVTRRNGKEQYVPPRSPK
UniProt Q659C4: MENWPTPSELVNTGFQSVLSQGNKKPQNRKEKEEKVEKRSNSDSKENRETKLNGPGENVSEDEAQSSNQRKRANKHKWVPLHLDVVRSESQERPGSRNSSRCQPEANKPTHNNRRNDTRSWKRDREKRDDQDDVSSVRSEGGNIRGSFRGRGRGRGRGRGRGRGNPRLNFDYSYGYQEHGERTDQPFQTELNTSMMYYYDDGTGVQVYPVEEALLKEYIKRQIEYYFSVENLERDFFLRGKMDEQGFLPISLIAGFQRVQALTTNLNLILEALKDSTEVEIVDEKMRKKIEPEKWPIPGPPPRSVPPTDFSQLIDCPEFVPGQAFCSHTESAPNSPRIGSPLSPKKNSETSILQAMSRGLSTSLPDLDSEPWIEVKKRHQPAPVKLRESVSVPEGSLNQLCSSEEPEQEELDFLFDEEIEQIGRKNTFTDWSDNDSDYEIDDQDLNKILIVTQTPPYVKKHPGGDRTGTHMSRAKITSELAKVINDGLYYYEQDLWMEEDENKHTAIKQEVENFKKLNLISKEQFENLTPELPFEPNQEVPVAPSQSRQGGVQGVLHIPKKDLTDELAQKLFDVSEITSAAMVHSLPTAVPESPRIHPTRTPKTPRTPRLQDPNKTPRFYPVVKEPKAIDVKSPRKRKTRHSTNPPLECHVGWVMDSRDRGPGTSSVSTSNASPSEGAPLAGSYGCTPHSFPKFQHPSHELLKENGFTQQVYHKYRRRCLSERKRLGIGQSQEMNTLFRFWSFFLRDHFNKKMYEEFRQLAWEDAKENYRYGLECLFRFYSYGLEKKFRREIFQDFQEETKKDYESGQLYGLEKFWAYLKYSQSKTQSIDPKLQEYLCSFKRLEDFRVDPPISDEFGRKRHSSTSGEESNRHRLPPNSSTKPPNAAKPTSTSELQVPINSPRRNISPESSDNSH
UniProt Q8N122: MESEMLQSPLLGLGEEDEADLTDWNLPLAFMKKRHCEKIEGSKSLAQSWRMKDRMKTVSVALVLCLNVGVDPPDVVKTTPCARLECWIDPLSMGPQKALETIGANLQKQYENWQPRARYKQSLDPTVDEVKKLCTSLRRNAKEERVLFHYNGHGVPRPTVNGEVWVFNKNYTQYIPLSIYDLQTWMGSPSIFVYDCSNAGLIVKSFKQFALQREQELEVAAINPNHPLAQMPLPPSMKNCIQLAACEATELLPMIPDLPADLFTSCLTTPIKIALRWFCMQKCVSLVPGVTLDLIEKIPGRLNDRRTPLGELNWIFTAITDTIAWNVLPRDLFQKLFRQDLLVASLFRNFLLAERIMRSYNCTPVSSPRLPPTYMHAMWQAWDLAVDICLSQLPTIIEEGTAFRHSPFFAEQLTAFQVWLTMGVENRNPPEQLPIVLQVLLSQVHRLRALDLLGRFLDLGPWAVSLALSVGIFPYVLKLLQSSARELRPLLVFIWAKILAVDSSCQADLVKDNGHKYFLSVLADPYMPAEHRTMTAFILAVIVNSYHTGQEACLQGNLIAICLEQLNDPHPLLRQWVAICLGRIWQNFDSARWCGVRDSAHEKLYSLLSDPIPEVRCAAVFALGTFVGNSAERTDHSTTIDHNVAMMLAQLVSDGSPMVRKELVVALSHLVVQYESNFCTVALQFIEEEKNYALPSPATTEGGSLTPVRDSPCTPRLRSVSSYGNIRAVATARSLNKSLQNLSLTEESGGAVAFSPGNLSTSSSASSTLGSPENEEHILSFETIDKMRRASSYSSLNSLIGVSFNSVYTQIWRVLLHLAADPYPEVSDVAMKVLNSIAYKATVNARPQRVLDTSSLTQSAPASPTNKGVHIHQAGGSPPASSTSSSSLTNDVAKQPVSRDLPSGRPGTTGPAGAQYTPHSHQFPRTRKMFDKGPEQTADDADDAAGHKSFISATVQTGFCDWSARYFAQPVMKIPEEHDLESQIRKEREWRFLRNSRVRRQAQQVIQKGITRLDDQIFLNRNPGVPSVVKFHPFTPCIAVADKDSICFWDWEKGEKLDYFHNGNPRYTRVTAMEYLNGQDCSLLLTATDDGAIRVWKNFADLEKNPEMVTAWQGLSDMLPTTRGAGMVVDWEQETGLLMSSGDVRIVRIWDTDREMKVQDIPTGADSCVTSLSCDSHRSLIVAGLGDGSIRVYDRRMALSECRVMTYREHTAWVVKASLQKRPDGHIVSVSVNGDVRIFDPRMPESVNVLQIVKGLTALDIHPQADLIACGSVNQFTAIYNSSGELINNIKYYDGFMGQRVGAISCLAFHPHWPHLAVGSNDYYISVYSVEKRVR

Assays:
Assay in all cases: co-IP
[1] = target: T1, FLAG-tagged human wildtype La (human) (UniProt P05455)
T1 sequence: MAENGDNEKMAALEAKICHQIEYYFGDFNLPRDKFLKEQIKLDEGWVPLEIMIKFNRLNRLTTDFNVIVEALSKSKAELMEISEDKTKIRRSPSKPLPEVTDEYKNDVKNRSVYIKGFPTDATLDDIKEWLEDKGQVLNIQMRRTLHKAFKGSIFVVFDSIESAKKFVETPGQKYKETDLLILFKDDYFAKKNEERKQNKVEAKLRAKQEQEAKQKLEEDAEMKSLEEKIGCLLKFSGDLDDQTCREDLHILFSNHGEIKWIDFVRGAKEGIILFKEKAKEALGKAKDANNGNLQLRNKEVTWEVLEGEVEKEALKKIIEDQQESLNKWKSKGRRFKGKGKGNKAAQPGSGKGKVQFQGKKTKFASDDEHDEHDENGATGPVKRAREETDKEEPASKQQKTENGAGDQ

[2] = target: FLAG-tagged human wildtype LARP5 (human) (UniProt Q92615)
[3] = target: T2, human wildtype LARP7 (precipitated with anti-FLAG antibody) (human) (UniProt Q4G0J3)
T2 sequence: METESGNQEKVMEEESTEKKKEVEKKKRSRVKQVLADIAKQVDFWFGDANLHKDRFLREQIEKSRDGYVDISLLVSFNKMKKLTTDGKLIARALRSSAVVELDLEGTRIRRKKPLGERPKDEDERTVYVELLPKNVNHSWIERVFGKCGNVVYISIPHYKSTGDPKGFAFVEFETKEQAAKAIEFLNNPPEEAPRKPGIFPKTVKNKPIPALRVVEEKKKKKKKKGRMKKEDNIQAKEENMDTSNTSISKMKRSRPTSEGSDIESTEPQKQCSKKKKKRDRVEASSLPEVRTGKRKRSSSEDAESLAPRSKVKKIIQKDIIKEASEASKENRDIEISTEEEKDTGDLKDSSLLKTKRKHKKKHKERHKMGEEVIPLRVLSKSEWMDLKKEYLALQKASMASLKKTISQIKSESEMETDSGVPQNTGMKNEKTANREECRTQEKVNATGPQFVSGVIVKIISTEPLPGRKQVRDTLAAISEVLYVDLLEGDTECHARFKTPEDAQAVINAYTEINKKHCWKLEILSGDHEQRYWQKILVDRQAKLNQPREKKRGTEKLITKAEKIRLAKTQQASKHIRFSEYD

[4] = target: T3, human wildtype LARP6 (precipitated with anti-FLAG antibody) (human) (UniProt Q9BRS8)
T3 sequence: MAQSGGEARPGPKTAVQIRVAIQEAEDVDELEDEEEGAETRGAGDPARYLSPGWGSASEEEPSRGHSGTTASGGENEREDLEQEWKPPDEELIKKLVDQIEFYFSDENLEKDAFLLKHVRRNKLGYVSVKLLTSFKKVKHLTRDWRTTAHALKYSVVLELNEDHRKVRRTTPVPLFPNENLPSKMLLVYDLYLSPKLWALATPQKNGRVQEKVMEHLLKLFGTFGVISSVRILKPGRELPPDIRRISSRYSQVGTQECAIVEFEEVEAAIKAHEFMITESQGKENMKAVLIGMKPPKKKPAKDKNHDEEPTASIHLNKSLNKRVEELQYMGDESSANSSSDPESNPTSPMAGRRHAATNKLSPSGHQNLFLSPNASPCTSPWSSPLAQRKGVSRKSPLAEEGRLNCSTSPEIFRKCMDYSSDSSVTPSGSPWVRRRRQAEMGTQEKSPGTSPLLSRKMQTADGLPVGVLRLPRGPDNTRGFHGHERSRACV

[5] = target: FLAG-tagged human wildtype LARP4 (human) (UniProt Q71RC2)
[6] = target: human LARP2 R790L/E791D (FRREI replaced by the FRLDI sequence) (human) (UniProt Q659C4)

binding [1]: no binding
binding [2]: no binding
binding [3]: no binding
binding [4]: no binding
binding [5]: no binding
binding [6]: no binding
Substance: endogenous RAPTOR (regulatory associated protein of mTOR) (from UniProt Q8N122 1-1335)
